Measured values taken from publication PMC6584639.
No constants are given. Whether binding was seen depends on the method and setting. Binding seen in cells or lysates may run through a third protein. Here binding means that the protein was enriched with, or labelled near, the bait; the list need not be complete. Where a sequence is shown, tags or fusion partners need not be part of it.

Target: T1, KIF1C-BioID2-HA (full-length KIF1C) (human) (UniProt O43896)
T1 sequence: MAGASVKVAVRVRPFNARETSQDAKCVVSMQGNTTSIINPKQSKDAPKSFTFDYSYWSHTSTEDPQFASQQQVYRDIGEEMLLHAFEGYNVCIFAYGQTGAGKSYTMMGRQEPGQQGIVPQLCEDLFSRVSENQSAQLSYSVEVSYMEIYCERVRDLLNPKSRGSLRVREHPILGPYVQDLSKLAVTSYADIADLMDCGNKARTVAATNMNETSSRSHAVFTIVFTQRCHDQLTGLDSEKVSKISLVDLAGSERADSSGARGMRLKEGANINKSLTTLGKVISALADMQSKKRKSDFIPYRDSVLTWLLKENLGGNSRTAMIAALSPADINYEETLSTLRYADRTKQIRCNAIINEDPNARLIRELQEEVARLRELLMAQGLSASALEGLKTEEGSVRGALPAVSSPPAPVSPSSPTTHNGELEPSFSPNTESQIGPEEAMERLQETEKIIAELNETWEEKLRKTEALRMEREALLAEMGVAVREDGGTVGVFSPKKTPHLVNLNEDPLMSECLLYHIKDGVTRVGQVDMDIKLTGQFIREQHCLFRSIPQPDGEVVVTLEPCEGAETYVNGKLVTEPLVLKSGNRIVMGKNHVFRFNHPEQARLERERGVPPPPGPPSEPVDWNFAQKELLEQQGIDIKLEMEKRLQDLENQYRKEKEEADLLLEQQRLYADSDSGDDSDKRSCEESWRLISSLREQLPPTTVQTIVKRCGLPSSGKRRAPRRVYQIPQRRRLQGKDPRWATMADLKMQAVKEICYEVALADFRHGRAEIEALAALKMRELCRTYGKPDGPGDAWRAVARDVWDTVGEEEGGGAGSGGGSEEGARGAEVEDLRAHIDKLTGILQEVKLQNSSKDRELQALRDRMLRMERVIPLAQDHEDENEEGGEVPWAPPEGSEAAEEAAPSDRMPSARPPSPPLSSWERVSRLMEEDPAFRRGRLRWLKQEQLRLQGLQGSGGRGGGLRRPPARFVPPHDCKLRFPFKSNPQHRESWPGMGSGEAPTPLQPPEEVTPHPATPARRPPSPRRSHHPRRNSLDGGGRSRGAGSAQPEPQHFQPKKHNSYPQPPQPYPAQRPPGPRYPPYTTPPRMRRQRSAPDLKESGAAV
Test: proximity labelling; BioID: KIF1C-BioID2-HA or KIF1CΔS-BioID2-HA in RPE1 cells, 50 µM biotin for 12 h, streptavidin beads, mass spectrometry

B1: Hook3 (endogenous, RPE1 cells) (protein, UniProt Q86VS8 1-718)
chain: MFSVESLERAELCESLLTWIQTFNVDAPCQTVEDLTNGVVMAQVLQKIDPAYFDENWLNRIKTEVGDNWRLKISNLKKILKGILDYNHEILGQQINDFTLPDVNLIGEHSDAAELGRMLQLILGCAVNCEQKQEYIQAIMMMEESVQHVVMTAIQELMSKESPVSAGNDAYVDLDRQLKKTTEELNEALSAKEEIAQRCHELDMQVAALQEEKSSLLAENQVLMERLNQSDSIEDPNSPAGRRHLQLQTQLEQLQEETFRLEAAKDDYRIRCEELEKEISELRQQNDELTTLADEAQSLKDEIDVLRHSSDKVSKLEGQVESYKKKLEDLGDLRRQVKLLEEKNTMYMQNTVSLEEELRKANAARSQLETYKRQVVELQNRLSEESKKADKLDFEYKRLKEKVDSLQKEKDRLRTERDSLKETIEELRCVQAQEGQLTTQGLMPLGSQESSDSLAAEIVTPEIREKLIRLQHENKMLKLNQEGSDNEKIALLQSLLDDANLRKNELETENRLVNQRLLEVQSQVEELQKSLQDQGSKAEDSVLLKKKLEEHLEKLHEANNELQKKRAIIEDLEPRFNNSSLKIEELQEALRKKEEEMKQMEERYKKYLEKAKSVIRTLDPKQNQGAAPEIQALKNQLQERDRLFHSLEKEYEKTKSQREMEEKYIVSAWYNMGMTLHKKAAEDRLASTGSGQSFLARQRQATSSRRSYPGHVQPATAR
  binding: binds
